According to PubChem BioAssay AID602313 (National Center for Advancing Translational Sciences (NCATS), 2012):
In all, about 390,000 compounds went through this assay and about 760 (0.19%) were called active. Inconclusive results, whose numbers are uncertain, are shown with a selection of clear calls. The call rests on the fitted dose curve; in most records, active means well fitted inhibition curve with a large enough effect; inconclusive means small, poorly fitted or top-dose-only effect; inactive means flat fitted curve, though single readings scatter. Potencies of inconclusive entries are doubtful fits and often do not repeat.
Potency means the concentration at half of the fitted maximal effect.

Assay: qHTS for Inhibitors of Vif-A3F Interactions: qHTS; further: nearly all actives have a fitted effect of over 65% in size; on activity, negative = active: % of control where 0% means no effect
Settings: HeLa A3F-eYFP + Vif (tagged APOBEC3F with the HIV-1 protein that degrades it), YFP fluorescence increase; series mostly up to 46.1 µM; activity, negative = active: at the top concentration
Outline: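 Fluorescence increase (Ex 488/Em 500-530) after overnight compound treatment at 37 deg C flags inhibition of Vif-driven A3F-eYFP loss in stable HeLa A3F-eYFP/Vif cells seeded overnight beforehand.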
For `Cc1ncsc1C(=O)N1N=C2/C(=C/c3ccc(N4CCOCC4)cc3)CCCC2C1c1ccc(N2CCOCC2)cc1` (configuration not stated), the Potency was inconclusive: 15.8 µM [inhibitor, single point].
In the case of `Cc1ccc(Cn2c(C(=O)O)c(CNCc3ccc(OC(C)C)cc3)c3ccc(C)cc32)cc1`, the Potency is reported as inconclusive: 12.6 µM [inhibitor, partial curve, poor fit].
With `O=C(NCc1ccccc1Cl)c1ccc2c(c1)NC(=O)C(CS(=O)(=O)Cc1ccc(F)cc1Cl)N2` (configuration not stated) the Potency was inconclusive: 17.8 µM [inhibitor, single point].
For `CCCCC1=CC2=C(c3ccco3)C(=O)C(C)(OC(=O)c3ccc(OC)cc3)C(=O)C2=CN1Cc1ccccc1` (configuration not stated), the Potency was inconclusive: 2.82 µM [inhibitor, full curve, poor fit].
For `CCOC(=O)c1ccc(N2C(=O)c3[nH]nc(-c4ccccc4)c3C2c2ccc(CC)cc2)cc1` (configuration not stated), the “activity, negative = active” value was inactive: -3.63%.
In the case of `O=C(NCc1cccs1)c1ccc2c(=O)n3nc(Nc4ccccc4)sc3nc2c1`, the Potency is reported as inconclusive: 3.55 µM [inhibitor, full curve, poor fit].
For `Cc1cccc2c3nc4ccccc4nc3n(C)c12`, the Potency was inconclusive: 35.5 µM [inhibitor, single point].
With `O=C(Nc1nnc(C2CC2)o1)c1ccc(S(=O)(=O)N2CCCc3ccccc32)cc1` the Potency was inconclusive: 5.62 µM [inhibitor, single point].
In the case of `N#Cc1c2ccc(OCC(N)=O)cc2n2ccccc12`, the Potency is reported as inconclusive: 35.5 µM [inhibitor, single point].
With `O=C(NCc1ccccc1C(F)(F)F)c1cccc2c1C(=O)c1ccc(N3CCC(N4CCCCC4)CC3)cc1S2(=O)=O` the Potency was inconclusive: 3.98 µM [inhibitor, full curve, poor fit].
With `COc1ccccc1/C=N/NC(=S)Nc1cccnc1` the Potency was inconclusive: 3.16 µM [inhibitor, full curve, poor fit].
In the case of `COc1cc(OC)c(OC)cc1/C=C1/Cc2ccccc2C1=O`, the Potency is reported as inconclusive: 31.6 µM [inhibitor, single point].
In the case of `CCCCn1c2ccccc2c2nnc(SCCN3CCCCC3)nc21`, the Potency is reported as inconclusive: 35.5 µM [inhibitor, single point].
For `CCOC(=O)c1ccc(N2C(=O)c3[nH]nc(-c4ccc(C)cc4)c3C2c2cccc(F)c2)cc1` (configuration not stated), the “activity, negative = active” value was inactive: -16.3%.
With `Cc1ccc(N2CCN(c3ccc(NCc4nc5ccccc5n4C)cc3)CC2)cc1` the Potency was inconclusive: 12.6 µM [inhibitor, single point].
For `O=C(CSc1nnnn1-c1ccccc1)Nc1ncc2c(n1)CC(c1ccccc1)CC2=O` (configuration not stated), the Potency was inconclusive: 10 µM [inhibitor, partial curve, poor fit].
With `CC1=NOC(=O)/C1=C\c1ccc2c(c1)OCO2` the Potency was inconclusive: 6.31 µM [inhibitor, single point].
For `COc1cccc(NC(=O)NCCCSC2CCCCC2)c1`, the “activity, negative = active” value was inactive: -4.41%.
In the case of `CN1C(=O)c2ccccc2C(O)c2ccccc21` (configuration not stated), the “activity, negative = active” value is reported as inactive: 7.38%.
With `Cc1ccc(-c2nc(CN(Cc3cnn(C)c3)C(C)C)c(C)o2)o1` the Potency was inconclusive: 12.6 µM [inhibitor, single point].
For `COc1ccc2[nH]c(C(=O)O)c(NS(=O)(=O)c3ccc(Cl)s3)c2c1`, the “activity, negative = active” value was inactive: -3.06%.
With `Cc1cccc(NC(=O)CSc2cn(CC(=O)N3CCCCCC3)c3ccccc23)c1` the “activity, negative = active” value was inactive: 5.56%.
With `Oc1nc(Nc2ccc(F)cc2)sc1/C=C1\C=Nc2ccccc21` the Potency was inconclusive: 35.5 µM [inhibitor, single point].
In the case of `COc1ccc(Nc2cc(C)nc3ncnn23)cc1Cl`, the Potency is reported as inconclusive: 5.62 µM [inhibitor, single point].
With `Clc1c(-c2ccccc2)nc2ccccn12` the Potency was inconclusive: 12.6 µM [inhibitor, single point].
In the case of `Cc1cccc(C(=O)Oc2cccc3c(O)cccc23)c1`, the “activity, negative = active” value is reported as inactive: -7.1%.
With `FC(F)(F)c1ccc(NC(=S)NC2CCCCC2)cc1` the Potency was inconclusive: 31.6 µM [inhibitor, single point].
For `COc1ccc(/C=N/NC(=O)c2ccn[nH]2)cc1Cn1cc([N+](=O)[O-])cn1`, the Potency was inconclusive: 3.16 µM [inhibitor, single point].
In the case of `COc1cc(NS(=O)(=O)c2ccc(NC(=S)NC(=O)/C=C/c3ccco3)cc2)ncn1`, the “activity, negative = active” value is reported as inactive: 8.5%.
For `c1ccc(-c2ccc(-c3nc(-c4ccncc4)no3)cc2)cc1`, the Potency was inconclusive: 12.6 µM [inhibitor, single point].
With `COC(=O)c1ccc(Cn2cnc3c(cnn3-c3ccc(Cl)cc3)c2=O)o1` the Potency was inconclusive: 3.55 µM [inhibitor, single point].
In the case of `Cc1cccc(NC(=S)NC(C)(C)CC(C)(C)C)c1`, the Potency is reported as inconclusive: 35.5 µM [inhibitor, single point].
With `CCc1noc(C)c1C(=O)Nc1nc(-c2cc(OC)ccc2OC)cs1` the Potency was inconclusive: 11.2 µM [inhibitor, partial curve, poor fit].
With `CCN(CC)S(=O)(=O)c1ccc(NC(=O)CSc2ncnc3ccccc23)cc1` the Potency was inconclusive: 6.31 µM [inhibitor, single point].
With `CC(=O)Nc1ccc(NC(=O)c2ccc(NS(=O)(=O)c3cc(C(C)(C)C)cc(C)c3C)cc2)cc1` the Potency was inconclusive: 35.5 µM [inhibitor, partial curve, poor fit].
In the case of `O=C1C=C(Nc2ccccc2O)c2ccccc2C1=O`, the “activity, negative = active” value is reported as inactive: 0%.
In the case of `CCOC(=O)c1c(C)c[nH]c1C`, the Potency is reported as inconclusive: 35.5 µM [inhibitor, single point].
For `Cc1cc(C)c(C(=O)COC(=O)c2ccc(NC(=O)CC#N)cc2)cc1C`, the Potency was inconclusive: 12.6 µM [inhibitor, partial curve, poor fit].
For `COCCn1c(=S)[nH]c2cc(C(=O)N3CCN(c4cccc(Cl)c4)CC3)ccc2c1=O`, the “activity, negative = active” value was inactive: 2.26%.
For `Cc1cc(N=Cc2c(O)ccc3cc(Br)ccc23)no1`, the Potency was inconclusive: 10 µM [inhibitor, partial curve, poor fit].
For `S=C(Nc1cccc2ccccc12)NC1CCCCC1`, the Potency was inconclusive: 22.4 µM [inhibitor, single point].
For `Cn1c(-c2ccccc2)nc2cnccc21`, the “activity, negative = active” value was inactive: 2.3%.
